This is one part of the list.
Legend:
Assay in all cases: log2 fold change, soluble protein after heating vs DMSO (PISA); higher = thermal stabilisation; K562 cells, 10 uM, 30 min; active = over 0.2 and 3.5 SD of the protein, either way, in both replicates (recomputed)
[1] = compound: NC(=O)Nc1cc(-c2cccc(F)c2)sc1C(=O)N[C@H]1CCCNC1
Procedure, shortened: (§1)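 K562 cells at 2×10^6 cells/mL were treated with 10 μM compound for 30 min. Aliquots were heated for 3 min across 48°C-58°C, pooled, and extracted in PBS with 0.5% NP-40 at 4°C; soluble protein was the supernatant after 21,000xg for 90 min. Soluble protein was quantified by TMTpro 16plex LC-MS/MS with channel sums equalised, and reported as log2 fold change in thermal stability against DMSO controls, with values from duplicates.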

Sequences of proteins named here, by UniProt entry; tags and fusion partners are left off. A change or cut given only in a name is not applied to a line headed by its entry.
UniProt Q5TDH0: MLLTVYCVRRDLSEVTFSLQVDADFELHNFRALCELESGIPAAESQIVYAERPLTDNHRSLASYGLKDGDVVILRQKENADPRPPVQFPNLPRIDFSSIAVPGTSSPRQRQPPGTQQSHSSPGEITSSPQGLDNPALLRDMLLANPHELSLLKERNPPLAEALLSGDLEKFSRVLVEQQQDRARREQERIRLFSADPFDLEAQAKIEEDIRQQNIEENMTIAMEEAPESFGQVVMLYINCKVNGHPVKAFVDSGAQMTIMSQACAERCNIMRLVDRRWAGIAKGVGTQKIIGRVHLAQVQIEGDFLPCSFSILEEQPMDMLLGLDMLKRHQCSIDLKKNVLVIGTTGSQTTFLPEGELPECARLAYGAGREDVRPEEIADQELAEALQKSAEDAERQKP
UniProt Q15392: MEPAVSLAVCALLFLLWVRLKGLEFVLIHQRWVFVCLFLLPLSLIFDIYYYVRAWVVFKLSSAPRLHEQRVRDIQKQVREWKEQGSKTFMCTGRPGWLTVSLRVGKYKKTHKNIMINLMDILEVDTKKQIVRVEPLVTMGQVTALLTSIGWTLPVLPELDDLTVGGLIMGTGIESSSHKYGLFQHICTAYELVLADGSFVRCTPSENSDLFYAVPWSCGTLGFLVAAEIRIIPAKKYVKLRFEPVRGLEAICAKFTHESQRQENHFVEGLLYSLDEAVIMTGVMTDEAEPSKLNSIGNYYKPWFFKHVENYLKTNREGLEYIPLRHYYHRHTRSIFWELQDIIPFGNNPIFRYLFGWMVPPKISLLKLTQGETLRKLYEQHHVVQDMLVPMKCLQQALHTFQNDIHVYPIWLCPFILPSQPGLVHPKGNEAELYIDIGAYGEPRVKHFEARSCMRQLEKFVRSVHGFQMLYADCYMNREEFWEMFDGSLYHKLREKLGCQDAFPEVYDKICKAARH
UniProt Q7Z478: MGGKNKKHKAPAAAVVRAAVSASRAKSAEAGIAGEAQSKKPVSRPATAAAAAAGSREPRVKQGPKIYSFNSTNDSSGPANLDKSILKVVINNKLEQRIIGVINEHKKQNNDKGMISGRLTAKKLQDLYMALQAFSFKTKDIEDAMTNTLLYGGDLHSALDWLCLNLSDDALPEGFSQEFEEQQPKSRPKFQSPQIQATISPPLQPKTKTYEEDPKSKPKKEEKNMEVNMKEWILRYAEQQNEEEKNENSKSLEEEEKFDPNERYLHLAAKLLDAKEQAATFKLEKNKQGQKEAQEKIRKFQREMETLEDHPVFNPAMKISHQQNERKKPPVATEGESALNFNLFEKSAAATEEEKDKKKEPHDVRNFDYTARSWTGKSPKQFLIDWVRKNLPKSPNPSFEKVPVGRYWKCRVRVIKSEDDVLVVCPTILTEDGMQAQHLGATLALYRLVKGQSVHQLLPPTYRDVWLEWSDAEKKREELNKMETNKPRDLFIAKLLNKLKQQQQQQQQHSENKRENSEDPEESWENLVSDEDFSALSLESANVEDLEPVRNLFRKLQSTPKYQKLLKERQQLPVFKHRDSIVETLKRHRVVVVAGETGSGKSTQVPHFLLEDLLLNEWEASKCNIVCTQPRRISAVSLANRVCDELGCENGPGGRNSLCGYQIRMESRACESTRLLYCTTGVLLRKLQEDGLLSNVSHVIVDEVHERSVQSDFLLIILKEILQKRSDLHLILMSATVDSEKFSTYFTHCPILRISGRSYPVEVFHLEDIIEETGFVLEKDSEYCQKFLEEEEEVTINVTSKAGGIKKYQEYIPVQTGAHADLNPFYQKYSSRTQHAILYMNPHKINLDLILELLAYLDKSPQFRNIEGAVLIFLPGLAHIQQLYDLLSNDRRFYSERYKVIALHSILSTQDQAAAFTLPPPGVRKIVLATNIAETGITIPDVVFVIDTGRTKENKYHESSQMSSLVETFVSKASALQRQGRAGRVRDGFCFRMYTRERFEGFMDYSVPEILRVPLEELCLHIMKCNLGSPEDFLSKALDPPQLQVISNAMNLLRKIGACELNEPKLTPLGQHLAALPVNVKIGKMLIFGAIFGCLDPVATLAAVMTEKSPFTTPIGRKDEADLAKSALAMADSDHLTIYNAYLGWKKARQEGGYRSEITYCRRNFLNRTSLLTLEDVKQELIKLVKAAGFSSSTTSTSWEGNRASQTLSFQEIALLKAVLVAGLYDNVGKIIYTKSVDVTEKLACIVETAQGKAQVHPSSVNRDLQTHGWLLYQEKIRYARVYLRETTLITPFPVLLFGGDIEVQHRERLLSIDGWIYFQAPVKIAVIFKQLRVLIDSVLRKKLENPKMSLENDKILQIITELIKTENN
UniProt O60884: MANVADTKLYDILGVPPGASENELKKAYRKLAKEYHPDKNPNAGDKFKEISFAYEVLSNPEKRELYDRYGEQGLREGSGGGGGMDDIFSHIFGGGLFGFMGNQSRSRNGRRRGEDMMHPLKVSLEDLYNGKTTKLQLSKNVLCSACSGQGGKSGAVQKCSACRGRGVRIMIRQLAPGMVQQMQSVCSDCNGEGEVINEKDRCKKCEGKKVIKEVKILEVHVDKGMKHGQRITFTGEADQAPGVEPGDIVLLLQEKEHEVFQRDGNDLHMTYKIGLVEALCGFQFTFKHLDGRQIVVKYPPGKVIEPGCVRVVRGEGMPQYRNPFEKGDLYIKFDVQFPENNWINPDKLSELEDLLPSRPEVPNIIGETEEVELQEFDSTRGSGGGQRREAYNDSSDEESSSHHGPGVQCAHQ
UniProt Q7L2E3: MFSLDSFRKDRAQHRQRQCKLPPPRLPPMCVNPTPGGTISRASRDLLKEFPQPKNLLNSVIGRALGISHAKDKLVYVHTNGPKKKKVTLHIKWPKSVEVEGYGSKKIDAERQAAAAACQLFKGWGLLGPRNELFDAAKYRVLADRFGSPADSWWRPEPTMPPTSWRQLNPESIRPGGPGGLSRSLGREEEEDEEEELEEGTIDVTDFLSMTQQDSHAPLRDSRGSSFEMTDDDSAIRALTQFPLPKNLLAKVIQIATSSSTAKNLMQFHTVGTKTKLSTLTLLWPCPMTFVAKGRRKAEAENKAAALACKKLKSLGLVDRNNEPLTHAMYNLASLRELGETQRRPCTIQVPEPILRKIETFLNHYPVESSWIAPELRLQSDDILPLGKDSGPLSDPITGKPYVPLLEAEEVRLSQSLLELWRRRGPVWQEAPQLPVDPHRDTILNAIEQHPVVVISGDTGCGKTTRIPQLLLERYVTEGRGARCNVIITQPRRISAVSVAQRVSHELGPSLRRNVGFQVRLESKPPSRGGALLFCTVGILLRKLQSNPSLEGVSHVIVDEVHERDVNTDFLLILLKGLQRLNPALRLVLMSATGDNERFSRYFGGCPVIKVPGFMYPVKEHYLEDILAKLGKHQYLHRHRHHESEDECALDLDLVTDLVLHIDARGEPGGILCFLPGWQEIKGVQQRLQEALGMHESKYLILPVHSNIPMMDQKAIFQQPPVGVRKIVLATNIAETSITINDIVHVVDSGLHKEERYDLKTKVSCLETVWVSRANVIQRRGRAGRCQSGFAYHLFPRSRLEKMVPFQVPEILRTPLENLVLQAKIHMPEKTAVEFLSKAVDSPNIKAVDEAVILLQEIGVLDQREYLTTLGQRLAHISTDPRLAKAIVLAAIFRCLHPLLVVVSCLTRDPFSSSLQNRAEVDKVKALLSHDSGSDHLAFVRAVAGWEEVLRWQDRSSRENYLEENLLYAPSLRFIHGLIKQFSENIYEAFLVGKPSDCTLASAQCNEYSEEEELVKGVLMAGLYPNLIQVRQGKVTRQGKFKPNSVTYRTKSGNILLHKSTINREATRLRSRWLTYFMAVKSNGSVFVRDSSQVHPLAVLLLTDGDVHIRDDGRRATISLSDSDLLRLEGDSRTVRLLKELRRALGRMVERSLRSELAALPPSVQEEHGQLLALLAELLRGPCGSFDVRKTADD
UniProt Q9NVR5: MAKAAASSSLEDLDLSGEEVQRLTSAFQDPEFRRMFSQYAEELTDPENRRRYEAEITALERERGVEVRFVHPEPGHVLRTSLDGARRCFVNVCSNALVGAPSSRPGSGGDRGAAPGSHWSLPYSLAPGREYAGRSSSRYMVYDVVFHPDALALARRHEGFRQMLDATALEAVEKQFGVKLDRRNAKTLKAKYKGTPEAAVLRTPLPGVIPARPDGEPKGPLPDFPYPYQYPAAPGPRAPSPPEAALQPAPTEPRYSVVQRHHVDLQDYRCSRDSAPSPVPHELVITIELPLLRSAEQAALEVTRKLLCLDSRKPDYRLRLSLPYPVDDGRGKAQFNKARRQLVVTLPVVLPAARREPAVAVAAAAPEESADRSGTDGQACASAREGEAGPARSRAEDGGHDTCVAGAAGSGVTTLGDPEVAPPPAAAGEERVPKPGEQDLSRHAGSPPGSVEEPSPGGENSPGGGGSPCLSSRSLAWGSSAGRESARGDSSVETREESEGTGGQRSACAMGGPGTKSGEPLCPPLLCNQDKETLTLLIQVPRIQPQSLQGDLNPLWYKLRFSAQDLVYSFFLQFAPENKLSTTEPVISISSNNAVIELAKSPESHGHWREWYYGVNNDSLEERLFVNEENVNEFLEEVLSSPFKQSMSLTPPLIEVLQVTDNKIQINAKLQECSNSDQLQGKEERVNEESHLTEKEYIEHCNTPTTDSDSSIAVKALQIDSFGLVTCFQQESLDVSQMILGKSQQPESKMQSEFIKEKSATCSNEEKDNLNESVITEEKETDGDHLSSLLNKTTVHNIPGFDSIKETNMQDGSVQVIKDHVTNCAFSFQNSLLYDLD
UniProt O95865: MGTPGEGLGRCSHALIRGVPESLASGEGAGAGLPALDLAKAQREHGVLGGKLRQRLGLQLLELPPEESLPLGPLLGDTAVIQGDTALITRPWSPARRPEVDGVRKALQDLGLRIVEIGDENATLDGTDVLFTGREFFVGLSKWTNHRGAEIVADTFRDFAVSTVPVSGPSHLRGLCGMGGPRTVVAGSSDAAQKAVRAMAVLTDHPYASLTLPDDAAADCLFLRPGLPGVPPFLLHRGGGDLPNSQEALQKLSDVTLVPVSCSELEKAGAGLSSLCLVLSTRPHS
UniProt Q08211, whole entry, looked up: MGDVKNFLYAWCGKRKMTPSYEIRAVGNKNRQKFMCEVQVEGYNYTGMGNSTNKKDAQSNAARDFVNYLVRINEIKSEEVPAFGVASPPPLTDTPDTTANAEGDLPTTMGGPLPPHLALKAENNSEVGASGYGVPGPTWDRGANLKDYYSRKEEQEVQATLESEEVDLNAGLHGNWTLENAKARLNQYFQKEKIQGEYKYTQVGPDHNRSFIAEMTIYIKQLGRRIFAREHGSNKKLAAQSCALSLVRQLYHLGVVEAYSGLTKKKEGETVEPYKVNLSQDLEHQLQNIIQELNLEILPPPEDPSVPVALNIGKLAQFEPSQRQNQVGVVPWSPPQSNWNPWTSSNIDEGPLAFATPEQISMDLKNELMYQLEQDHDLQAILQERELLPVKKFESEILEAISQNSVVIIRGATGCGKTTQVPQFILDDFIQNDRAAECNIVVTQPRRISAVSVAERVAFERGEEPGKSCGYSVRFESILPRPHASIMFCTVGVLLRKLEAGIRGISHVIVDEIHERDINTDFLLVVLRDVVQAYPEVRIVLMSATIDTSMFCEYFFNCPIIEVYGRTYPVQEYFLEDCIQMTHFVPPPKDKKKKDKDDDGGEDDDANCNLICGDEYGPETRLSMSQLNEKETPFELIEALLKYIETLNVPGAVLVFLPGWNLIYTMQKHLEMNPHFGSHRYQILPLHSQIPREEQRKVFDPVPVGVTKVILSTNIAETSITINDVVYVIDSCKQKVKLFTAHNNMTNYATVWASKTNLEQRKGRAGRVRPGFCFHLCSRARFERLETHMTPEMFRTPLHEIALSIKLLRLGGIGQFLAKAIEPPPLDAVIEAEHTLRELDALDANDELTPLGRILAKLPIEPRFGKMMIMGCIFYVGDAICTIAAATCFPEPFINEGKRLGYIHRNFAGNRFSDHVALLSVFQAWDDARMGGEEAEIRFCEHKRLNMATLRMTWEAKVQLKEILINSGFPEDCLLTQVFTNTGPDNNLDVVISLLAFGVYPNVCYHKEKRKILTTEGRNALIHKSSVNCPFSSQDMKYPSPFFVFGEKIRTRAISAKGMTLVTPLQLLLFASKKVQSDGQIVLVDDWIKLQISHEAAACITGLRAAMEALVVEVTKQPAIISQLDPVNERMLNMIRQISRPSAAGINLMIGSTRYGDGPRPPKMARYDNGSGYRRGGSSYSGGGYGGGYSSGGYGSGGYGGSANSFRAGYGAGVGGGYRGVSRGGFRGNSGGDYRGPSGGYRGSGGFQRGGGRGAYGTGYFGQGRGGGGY
UniProt Q9BUN8: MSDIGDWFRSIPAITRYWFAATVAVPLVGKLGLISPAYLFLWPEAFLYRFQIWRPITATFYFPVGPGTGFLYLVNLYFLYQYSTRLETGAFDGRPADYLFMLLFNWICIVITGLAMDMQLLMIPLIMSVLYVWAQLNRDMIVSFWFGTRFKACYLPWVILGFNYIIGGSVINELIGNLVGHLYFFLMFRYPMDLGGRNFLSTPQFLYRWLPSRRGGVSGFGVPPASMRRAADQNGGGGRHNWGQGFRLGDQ

[2] = compound: NC(=O)c1cnc(N[C@@H]2CCCC[C@@H]2N)nc1Nc1cccc(-n2nccn2)c1
Procedure, shortened: as §1

[3] = compound: NC1(c2ccc(-c3nc4ccn5c(=O)[nH]nc5c4cc3-c3ccccc3)cc2)CCC1
Procedure, shortened: as §1

[4] = compound: NCC(=O)Nc1ccc(-n2nc(C(F)(F)F)cc2-c2ccc3c(ccc4ccccc43)c2)cc1
Procedure, shortened: as §1

entinostat = compound: Nc1ccccc1NC(=O)c1ccc(CNC(=O)OCc2cccnc2)cc1 [entinostat]
Procedure, shortened: as §1

vorinostat = compound: O=C(CCCCCCC(=O)Nc1ccccc1)NO [vorinostat]
Procedure, shortened: as §1

citarinostat = compound: O=C(CCCCCCNC(=O)c1cnc(N(c2ccccc2)c2ccccc2Cl)nc1)NO [citarinostat]
Procedure, shortened: as §1

silmitasertib = compound: O=C(O)c1ccc2c(c1)nc(Nc1cccc(Cl)c1)c1ccncc12 [silmitasertib]
Procedure, shortened: as §1

[5] = compound: O=C1NC(=O)C(c2cnc3ccccn23)=C1c1cn2c3c(cc(F)cc13)CN(C(=O)N1CCCCC1)CC2
Procedure, shortened: as §1

[6] = compound: c1cc(OCCN2CCCCC2)cc(-c2n[nH]c3ccc(-c4nnc[nH]4)cc23)c1
Procedure, shortened: as §1

Measured: log2 fold change

DDX6 (UniProt P26196)
inactive: [1] -0.155 | [2] -0.019 | [3] -0.012 | [4] -0.127 | entinostat -0.044 | vorinostat 0.022 | citarinostat 0.016 | silmitasertib -0.02 | [5] -0.018 | [6] -0.056

DKC1 (UniProt O60832)
inactive: [1] 0.039 | [2] 0.049 | [3] 0.195 | [4] 0.027 | entinostat -0.061 | vorinostat -0.02 | citarinostat -0.072 | silmitasertib 0.073 | [5] 0.154 | [6] -0.15

DECR1 (UniProt Q16698)
inactive: [1] 0.013 | [2] 0.002 | [3] -0.016 | [4] 0.025 | entinostat -0.019 | vorinostat 0.02 | citarinostat 0.025 | silmitasertib -0.022 | [5] -0.022 | [6] -0.038

DDX49 (UniProt Q9Y6V7)
inactive: [1] -0.026 | [2] 0.027 | [3] 0.071 | [4] 0.01 | entinostat -0.062 | vorinostat -0.066 | citarinostat -0.056 | silmitasertib 0.027 | [5] 0.164 | [6] -0.179

DLG1 isoform 2 (UniProt Q12959)
inactive: [1] -0.163 | [2] -0.001 | [3] -0.16 | [4] -0.017 | entinostat -0.037 | vorinostat -0.004 | citarinostat 0.122 | silmitasertib 0.029 | [5] -0.023 | [6] -0.127

DDI2 isoform 3 (UniProt Q5TDH0)
inactive: [1] 0.002 | [2] -0.024 | [3] -0.029 | [4] 0.02 | entinostat -0.013 | vorinostat 0.031 | citarinostat 0.038 | silmitasertib 0.003 | [5] -0.022 | [6] 0.039

DHCR24 (UniProt Q15392)
active: [6] 1.08
inactive: [1] -0.022 | [2] -0.037 | [3] 0.048 | [4] -0.024 | entinostat -0.082 | vorinostat -0.012 | citarinostat 0 | silmitasertib -0.018 | [5] 0.041

DMXL1 (UniProt Q9Y485)
inactive: [1] -0.026 | [2] -0.075 | [3] -0.052 | [4] -0.015 | entinostat 0.033 | vorinostat 0.069 | citarinostat 0.005 | silmitasertib 0.04 | [5] -0.007 | [6] -0.071

DHX29 (UniProt Q7Z478)
inactive: [1] 0.066 | [2] 0.009 | [3] 0.111 | [4] 0 | entinostat 0.008 | vorinostat -0.015 | citarinostat -0.045 | silmitasertib 0.099 | [5] 0.156 | [6] -0.067

DDX23 (UniProt Q9BUQ8)
inactive: [1] 0.029 | [2] 0.085 | [3] 0.186 | [4] 0.083 | entinostat -0.07 | vorinostat -0.14 | citarinostat -0.148 | silmitasertib 0.128 | [5] 0.193 | [6] -0.194

DDX3X (UniProt O00571)
inactive: [1] 0.145 | [2] -0.037 | [3] 0.36 | [4] 0.1 | entinostat 0.16 | vorinostat 0.071 | citarinostat -0.095 | silmitasertib 0.154 | [5] 0.382 | [6] -0.31

DIMT1 (UniProt Q9UNQ2)
inactive: [1] 0.056 | [2] 0.107 | [3] 0.27 | [4] 0.094 | entinostat -0.027 | vorinostat 0.004 | citarinostat -0.091 | silmitasertib 0.086 | [5] 0.196 | [6] -0.149

DNAJA1 (UniProt P31689)
inactive: [1] -0.042 | [2] -0.026 | [3] -0.038 | [4] -0.088 | entinostat 0.005 | vorinostat 0.026 | citarinostat 0.017 | silmitasertib 0.001 | [5] -0.061 | [6] -0.09

DGCR2 (UniProt P98153)
inactive: [1] -0.039 | [2] -0.019 | [3] -0.167 | [4] -0.031 | entinostat -0.051 | vorinostat 0.076 | citarinostat -0.04 | silmitasertib 0.027 | [5] 0.012 | [6] -0.051

DLD (UniProt P09622)
inactive: [1] 0.003 | [2] 0.007 | [3] -0.088 | [4] 0.033 | entinostat -0.013 | vorinostat -0.02 | citarinostat 0.011 | silmitasertib -0.042 | [5] -0.004 | [6] -0.093

DMAC1 (UniProt Q96GE9)
inactive: [1] 0.136 | [2] 0.031 | [3] 0.015 | [4] -0.07 | entinostat -0.004 | vorinostat 0.019 | citarinostat -0.003 | silmitasertib -0.185 | [5] -0.427 | [6] 0.113

DNAJA2 (UniProt O60884)
inactive: [1] -0.01 | [2] -0.022 | [3] -0.056 | [4] 0.024 | entinostat 0.02 | vorinostat 0.041 | citarinostat 0.037 | silmitasertib -0.013 | [5] -0.018 | [6] 0.004

DHX30 isoform 2 (UniProt Q7L2E3)
inactive: [1] 0.052 | [2] -0.022 | [3] 0.103 | [4] 0.079 | entinostat -0.017 | vorinostat 0.036 | citarinostat -0.04 | silmitasertib 0.061 | [5] 0.138 | [6] -0.139

DNAAF2 (UniProt Q9NVR5)
inactive: [1] 0.039 | [2] 0.025 | [3] -0.042 | [4] -0.044 | entinostat -0.06 | vorinostat 0 | citarinostat -0.034 | silmitasertib 0.016 | [5] -0.003 | [6] -0.03

DHRS2 (UniProt Q13268)
inactive: [1] -0.027 | [2] 0.026 | [3] -0.014 | [4] 0.091 | entinostat 0.022 | vorinostat 0.003 | citarinostat 0.045 | silmitasertib 0.019 | [5] 0.045 | [6] -0.018

DHRS4 (UniProt Q9BTZ2)
inactive: [1] 0.019 | [2] -0.011 | [3] -0.031 | [4] 0.022 | entinostat -0.004 | vorinostat 0.004 | citarinostat 0.048 | silmitasertib 0.001 | [5] 0 | [6] 0.047

2 successive entries out of the list so far, for reference:
DNAJA2 (UniProt O60884)
inactive: [1] -0.01 | [2] -0.022 | [3] -0.056 | [4] 0.024 | entinostat 0.02 | vorinostat 0.041 | citarinostat 0.037 | silmitasertib -0.013 | [5] -0.018 | [6] 0.004

DHX30 isoform 2 (UniProt Q7L2E3)
inactive: [1] 0.052 | [2] -0.022 | [3] 0.103 | [4] 0.079 | entinostat -0.017 | vorinostat 0.036 | citarinostat -0.04 | silmitasertib 0.061 | [5] 0.138 | [6] -0.139

(cont.)

DHRS7B (UniProt Q6IAN0)
inactive: [1] -0.099 | [2] 0.083 | [3] -0.012 | [4] 0.117 | entinostat -0.014 | vorinostat 0.16 | citarinostat 0.01 | silmitasertib -0.05 | [5] -0.113 | [6] 0.077

DHX40 (UniProt Q8IX18)
inactive: [1] -0.093 | [2] -0.036 | [3] -0.157 | [4] -0.042 | entinostat -0.004 | vorinostat -0.097 | citarinostat 0.081 | silmitasertib -0.027 | [5] -0.116 | [6] -0.04

DES (UniProt P17661)
inactive: [1] -0.01 | [2] -0.1 | [3] -0.055 | [4] 0.034 | entinostat -0.016 | vorinostat -0.05 | citarinostat 0.006 | silmitasertib -0.014 | [5] 0.058 | [6] -0.1

DHODH (UniProt Q02127)
inactive: [1] 0.012 | [2] -0.004 | [3] -0.01 | [4] 0.017 | entinostat -0.006 | vorinostat -0.01 | citarinostat 0.001 | silmitasertib 0.016 | [5] -0.036 | [6] -0.015

DDAH2 (UniProt O95865)
inactive: [1] -0.066 | [2] -0.086 | [3] 0.037 | [4] -0.025 | entinostat 0.028 | vorinostat -0.053 | citarinostat 0.021 | silmitasertib -0.044 | [5] -0.122 | [6] -0.011

DHX9 (UniProt Q08211)
inactive: [1] -0.011 | [2] 0.036 | [3] 0.225 | [4] 0.079 | entinostat 0 | vorinostat -0.007 | citarinostat -0.08 | silmitasertib 0.201 | [5] 0.201 | [6] -0.18

DECR2 (UniProt Q9NUI1)
inactive: [1] -0.041 | [2] 0.023 | [3] -0.139 | [4] -0.099 | entinostat -0.001 | vorinostat 0.019 | citarinostat -0.038 | silmitasertib 0.019 | [5] -0.057 | [6] 0.292

DERL1 (UniProt Q9BUN8)
inactive: [1] 0.057 | [2] 0.025 | [3] -0.082 | [4] 0.036 | entinostat -0.049 | vorinostat -0.124 | citarinostat 0.001 | silmitasertib 0.013 | [5] -0.007 | [6] -0.008

DMTN (UniProt Q08495)
inactive: [1] -0.043 | [2] 0.079 | [3] 0.012 | [4] 0.024 | entinostat -0.036 | vorinostat 0.037 | citarinostat 0.004 | silmitasertib 0 | [5] -0.023 | [6] 0.034

From the supplement of paper PMC10849652
